Assay results: patent US11787809B2 (NIHON NOHYAKU CO., LTD., priority 2015, dated 2023)
Some of these results come from one statement about several compounds together.

Legend:
Format in all cases: in vivo
Laodelphax striatella = assay: Insecticidal test on Laodelphax striatella (rice seedling dip); details: 500 ppm, rice seedlings (Nihonbare) dipped 30 seconds, ten 3rd-instar larvae, 8 days after inoculation; criteria of Test Example 1
Excerpt: Insecticidal Test on Laodelphax striatella
The oxime group-containing condensed heterocyclic compounds represented by the general formula (1) of the present invention or salts thereof were separately dispersed in water and diluted to 500 ppm, and rice plant seedlings (variety: Nihonbare) were dipped in the agrochemical dispersions for 30 seconds. After air-dried, each seedling was put into a separate glass test tube and inoculated with ten 3rd-instar larvae of Laodelphax striatella, and then the glass test tubes were capped with cotton plugs. At 8 days after the inoculation, the numbers of surviving larvae and dead larvae were counted, the corrected mortality rate was calculated according to the formula shown below, and the insecticidal effect was evaluated according to the criteria of Test Example 1. Corrected mortality rate (%)=100×(Survival rate in a non-treatment plot−Survival rate in a treatment plot)/Survival rate in a non-treatment plot [Math. 2]

Plutella xylostella = assay: Insecticidal test on Plutella xylostella (dip of Chinese cabbage seedlings with laid eggs); details: 500 ppm, Chinese cabbage seedlings with laid eggs dipped about 30 seconds, 25° C., 6 days after dip treatment; criteria of Test Example 1
Excerpt: Insecticidal Test on Plutella xylostella
Adults of Plutella xylostella were released onto Chinese cabbage seedlings and allowed to lay eggs thereon. At 2 days after the release of the adults, the Chinese cabbage seedlings with laid eggs were dipped for about 30 seconds in agrochemical dispersions diluted to 500 ppm, each of which contained a different kind of oxime group-containing condensed heterocyclic compound represented by the general formula (1) of the present invention as an active ingredient. After air-dried, the seedlings were kept in a thermostatic chamber at 25° C. At 6 days after the dip treatment, the number of hatched larvae per plot was counted, the mortality rate was calculated according to the formula shown below, and the insecticidal effect was evaluated according to the criteria of Test Example 1. This test was conducted in triplicate using 10 adults of Plutella xylostella per plot. Corrected mortality rate (%)=100×(Number of hatched larvae in a non-treatment plot−Number of hatched larvae in a treatment plot)/Number of hatched larvae in a non-treatment plot [Math. 3]

Myzus persicae = assay: Test of control effect on Myzus persicae (foliar application to potted Chinese cabbage); details: 500 ppm dispersion in water, foliar application to potted Chinese cabbage plants, green peach aphids counted at 6 days after application

C=CCO/N=C/c1cnc(-c2nc3cc(C(F)(F)C(F)(F)F)cnc3n2C)c(S(=O)(=O)CC)c1 [Compound 1-201]
A (the control rate is 100%.): insecticidal effect (corrected mortality rate) (Laodelphax striatella) | insecticidal effect (corrected mortality rate, hatched larvae) (Plutella xylostella) | control effect (control rate) (Myzus persicae)

C=CCO/N=C\c1cnc(-c2nc3cc(C(F)(F)C(F)(F)F)cnc3n2C)c(S(=O)(=O)CC)c1 [Compound 1-204]
A (the control rate is 100%.): insecticidal effect (corrected mortality rate) (Laodelphax striatella) | insecticidal effect (corrected mortality rate, hatched larvae) (Plutella xylostella) | control effect (control rate) (Myzus persicae)

CCS(=O)(=O)c1cc(/C=N/OCc2ccccc2)cnc1-c1nc2cc(C(F)(F)C(F)(F)F)cnc2n1C [Compound 1-207]
A (the control rate is 100%.): insecticidal effect (corrected mortality rate) (Laodelphax striatella) | insecticidal effect (corrected mortality rate, hatched larvae) (Plutella xylostella) | control effect (control rate) (Myzus persicae)

CCS(=O)(=O)c1cc(/C(C)=N/OC)cnc1-c1nc2cc(C(F)(F)C(F)(F)F)cnc2n1C [Compound 1-210]
A (the control rate is 100%.): insecticidal effect (corrected mortality rate) (Laodelphax striatella) | insecticidal effect (corrected mortality rate, hatched larvae) (Plutella xylostella) | control effect (control rate) (Myzus persicae)

CCS(=O)(=O)c1cc(/C(C)=N\OC)cnc1-c1nc2cc(C(F)(F)C(F)(F)F)cnc2n1C [Compound 1-213]
A (the control rate is 100%.): insecticidal effect (corrected mortality rate) (Laodelphax striatella) | insecticidal effect (corrected mortality rate, hatched larvae) (Plutella xylostella) | control effect (control rate) (Myzus persicae)

CCO/N=C(\C)c1cnc(-c2nc3cc(C(F)(F)C(F)(F)F)cnc3n2C)c(S(=O)(=O)CC)c1 [Compound 1-216]
A (the control rate is 100%.): insecticidal effect (corrected mortality rate) (Laodelphax striatella) | insecticidal effect (corrected mortality rate, hatched larvae) (Plutella xylostella) | control effect (control rate) (Myzus persicae)

CCO/N=C(/C)c1cnc(-c2nc3cc(C(F)(F)C(F)(F)F)cnc3n2C)c(S(=O)(=O)CC)c1 [Compound 1-219]
A (the control rate is 100%.): insecticidal effect (corrected mortality rate) (Laodelphax striatella) | insecticidal effect (corrected mortality rate, hatched larvae) (Plutella xylostella) | control effect (control rate) (Myzus persicae)

C=CCO/N=C(\C)c1cnc(-c2nc3cc(C(F)(F)C(F)(F)F)cnc3n2C)c(S(=O)(=O)CC)c1 [Compound 1-222]
A (the control rate is 100%.): insecticidal effect (corrected mortality rate) (Laodelphax striatella) | insecticidal effect (corrected mortality rate, hatched larvae) (Plutella xylostella) | control effect (control rate) (Myzus persicae)

C=CCO/N=C(/C)c1cnc(-c2nc3cc(C(F)(F)C(F)(F)F)cnc3n2C)c(S(=O)(=O)CC)c1 [Compound 1-225]
A (the control rate is 100%.): insecticidal effect (corrected mortality rate) (Laodelphax striatella) | insecticidal effect (corrected mortality rate, hatched larvae) (Plutella xylostella) | control effect (control rate) (Myzus persicae)

CCS(=O)(=O)c1cc(/C(C)=N/OCc2ccccc2)cnc1-c1nc2cc(C(F)(F)C(F)(F)F)cnc2n1C [Compound 1-228]
A (the control rate is 100%.): insecticidal effect (corrected mortality rate) (Laodelphax striatella) | insecticidal effect (corrected mortality rate, hatched larvae) (Plutella xylostella) | control effect (control rate) (Myzus persicae)

CCS(=O)(=O)c1cc(/C(C)=N\OCc2ccccc2)cnc1-c1nc2cc(C(F)(F)C(F)(F)F)cnc2n1C [Compound 1-231]
A (the control rate is 100%.): insecticidal effect (corrected mortality rate) (Laodelphax striatella) | insecticidal effect (corrected mortality rate, hatched larvae) (Plutella xylostella) | control effect (control rate) (Myzus persicae)

CCS(=O)(=O)c1cc(/C=N/OC(C)(C)C)cnc1-c1nc2cc(C(F)(F)C(F)(F)F)cnc2n1C [Compound 1-234]
A (the control rate is 100%.): insecticidal effect (corrected mortality rate) (Laodelphax striatella) | insecticidal effect (corrected mortality rate, hatched larvae) (Plutella xylostella) | control effect (control rate) (Myzus persicae)

CCS(=O)(=O)c1cc(/C=N\OC(C)(C)C)cnc1-c1nc2cc(C(F)(F)C(F)(F)F)cnc2n1C [Compound 1-237]
A (the control rate is 100%.): insecticidal effect (corrected mortality rate) (Laodelphax striatella) | insecticidal effect (corrected mortality rate, hatched larvae) (Plutella xylostella) | control effect (control rate) (Myzus persicae)

CCS(=O)(=O)c1cc(/C=N/Oc2ccccc2)cnc1-c1nc2cc(C(F)(F)C(F)(F)F)cnc2n1C [Compound 1-240]
A (the control rate is 100%.): insecticidal effect (corrected mortality rate) (Laodelphax striatella) | insecticidal effect (corrected mortality rate, hatched larvae) (Plutella xylostella) | control effect (control rate) (Myzus persicae)

CCS(=O)(=O)c1cc(/C=N/OC(C)(C)OC)cnc1-c1nc2cc(C(F)(F)C(F)(F)F)cnc2n1C [Compound 1-243]
A (the control rate is 100%.): insecticidal effect (corrected mortality rate) (Laodelphax striatella) | insecticidal effect (corrected mortality rate, hatched larvae) (Plutella xylostella) | control effect (control rate) (Myzus persicae)

CCS(=O)(=O)c1cc(/C=N/OCC(F)F)cnc1-c1nc2cc(C(F)(F)C(F)(F)F)cnc2n1C [Compound 1-258]
A (the control rate is 100%.): insecticidal effect (corrected mortality rate) (Laodelphax striatella) | insecticidal effect (corrected mortality rate, hatched larvae) (Plutella xylostella) | control effect (control rate) (Myzus persicae)

CCS(=O)(=O)c1cc(/C=N/OCC(F)(F)C(F)(F)F)cnc1-c1nc2cc(C(F)(F)C(F)(F)F)cnc2n1C [Compound 1-306]
A (the control rate is 100%.): insecticidal effect (corrected mortality rate) (Laodelphax striatella) | insecticidal effect (corrected mortality rate, hatched larvae) (Plutella xylostella) | control effect (control rate) (Myzus persicae)

CCS(=O)(=O)c1cc(/C(N)=N\O)cnc1-c1nc2cc(C(F)(F)C(F)(F)F)cnc2n1C [Compound 1-353]
A (the control rate is 100%.): insecticidal effect (corrected mortality rate) (Laodelphax striatella) | insecticidal effect (corrected mortality rate, hatched larvae) (Plutella xylostella) | control effect (control rate) (Myzus persicae)

CCS(=O)(=O)c1cc(/C=N/OCC(F)(F)C(F)F)cnc1-c1nc2cc(C(F)(F)F)cnc2n1C [Compound 1-354]
A (the control rate is 100%.): insecticidal effect (corrected mortality rate) (Laodelphax striatella) | insecticidal effect (corrected mortality rate, hatched larvae) (Plutella xylostella) | control effect (control rate) (Myzus persicae)

CCS(=O)(=O)c1cc(/C(C)=N/OC)cnc1-c1nc2cc(C(F)(F)F)cnc2n1C [Compound 2-15]
A (the control rate is 100%.): insecticidal effect (corrected mortality rate) (Laodelphax striatella) | insecticidal effect (corrected mortality rate, hatched larvae) (Plutella xylostella) | control effect (control rate) (Myzus persicae)

CCS(=O)(=O)c1cc(/C(C)=N/OCC(F)(F)F)cnc1-c1nc2cc(C(F)(F)F)cnc2n1C [Compound 2-39]
A (the control rate is 100%.): insecticidal effect (corrected mortality rate) (Laodelphax striatella) | insecticidal effect (corrected mortality rate, hatched larvae) (Plutella xylostella) | control effect (control rate) (Myzus persicae)

CCS(=O)(=O)c1cc(/C=N/OCC(F)F)cnc1-c1nc2cc(C(F)(F)F)cnc2n1C [Compound 2-45]
A (the control rate is 100%.): insecticidal effect (corrected mortality rate) (Laodelphax striatella) | insecticidal effect (corrected mortality rate, hatched larvae) (Plutella xylostella) | control effect (control rate) (Myzus persicae)

CCS(=O)(=O)c1cc(/C=N/OC(C)=O)cnc1-c1nc2cc(C(F)(F)F)cnc2n1C [Compound 2-235]
A (the control rate is 100%.): insecticidal effect (corrected mortality rate) (Laodelphax striatella) | insecticidal effect (corrected mortality rate, hatched larvae) (Plutella xylostella) | control effect (control rate) (Myzus persicae)

CCS(=O)(=O)c1cc(/C=N/OC(=O)C2CC2)cnc1-c1nc2cc(C(F)(F)F)cnc2n1C [Compound 2-236]
A (the control rate is 100%.): insecticidal effect (corrected mortality rate) (Laodelphax striatella) | insecticidal effect (corrected mortality rate, hatched larvae) (Plutella xylostella) | control effect (control rate) (Myzus persicae)

CCS(=O)(=O)c1cc(/C=N/OCC2CC2)cnc1-c1nc2cc(C(F)(F)F)cnc2n1C [Compound 2-237]
A (the control rate is 100%.): insecticidal effect (corrected mortality rate) (Laodelphax striatella) | insecticidal effect (corrected mortality rate, hatched larvae) (Plutella xylostella) | control effect (control rate) (Myzus persicae)

C#CCO/N=C/c1cnc(-c2nc3cc(C(F)(F)F)cnc3n2C)c(S(=O)(=O)CC)c1 [Compound 2-238]
A (the control rate is 100%.): insecticidal effect (corrected mortality rate) (Laodelphax striatella) | insecticidal effect (corrected mortality rate, hatched larvae) (Plutella xylostella) | control effect (control rate) (Myzus persicae)

CCS(=O)(=O)c1cc(/C(C)=N/O)cnc1-c1nc2cc(C(F)(F)F)cnc2n1C [Compound 2-239]
A (the control rate is 100%.): insecticidal effect (corrected mortality rate) (Laodelphax striatella) | insecticidal effect (corrected mortality rate, hatched larvae) (Plutella xylostella) | control effect (control rate) (Myzus persicae)
